Source: PubChem BioAssay AID493014 (National Center for Advancing Translational Sciences (NCATS), 2011)
This is one part of the list. Shown are side measurements of this screen, not its main read-out; they come without a call. Most of these compounds were active or inconclusive in the main read-out, so they are no random draw. The note in brackets gives the kind of curve behind each potency; many fits are weak.

Experiment: qHTS Assay to Find Inhibitors of Chronic Active B-Cell Receptor Signaling
Settings: ABC-DLBCL IkBa-CBG/CBR reporter, luminescence ratio (green luciferase fused to IkBa over red control in TMD8 lymphoma cells), 4 h
Method in brief: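 Doxycycline induced both beetle luciferases in TMD8 lymphoma cells; IKK-driven degradation limits the IkappaBalpha-fused green signal, while red luminescence normalises for cell number and nonspecific effects. Compounds tested up to 46 uM, 4 hrs.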

[1] = measured here: CBR red luminescence, cell number
[2] = measured here: IkBa-CBG green luminescence

Row | Structure (SMILES) | AC50 [1] | AC50 [2]
1 | CC1CC(C)CN(S(=O)(=O)c2ccc(C(=O)N(c3ccccn3)C3CCCCC3)cc2)C1 (centres undefined) | 25.1 µM [falling, partial curve, poor fit] | 
2 | CCOC(=O)Cc1csc(NC(=O)C(CC(C)C)NC(=O)C2CCCCC2)n1 (centres undefined) | 35.5 µM [rising, single point] | 
3 | O=C(NN=C1CCCCCC1)c1cn(-c2ccccc2)nc1-c1ccccc1 | 6.51 µM [rising, single point] | 
4 | CC(C)CC(=O)Nc1nc2c(c(=O)[nH]1)CCCC2 | 8.2 µM [falling, partial curve, poor fit] | 
5 | Nc1nc(-c2cccs2)c(NC(=O)c2ccccc2)s1 | 28.2 µM [falling, single point] | 
6 | CCn1c(O)c(C2=NCCCC2)c2ccccc21 | 15.8 µM [falling, single point] | 
7 | O=C(CN1C(=O)NC2(CCCCCC2)C1=O)c1ccc(Cl)cc1 | 2.31 µM [rising, full curve, poor fit] | 
8 | N#Cc1ccccc1NC(=O)CN1CCN(Cc2ccccc2)CC1 | 6.31 µM [rising, single point] | 
9 | C(/CCc1ccccc1)=N\Nc1nc2ccccc2[nH]1 | 25.1 µM [falling, single point] | 
10 | O=C(NC(=S)NCCC1=CCCCC1)c1ccco1 | 0.112 µM [rising, full curve, poor fit] | 
11 | CC1CC(=O)Nc2ccccc2N1C(=O)CSc1nnnn1C(C)C (centres undefined) | 7.31 µM [rising, partial curve, poor fit] | 
12 | COc1ccccc1N1CCN(CC(=O)c2c(C)n(C)c3ccccc23)CC1 | 6.31 µM [rising, partial curve, poor fit] | 
13 | CN1/C(=C\C(=O)COC(=O)C2COc3ccccc3O2)C(C)(C)c2ccccc21 (centres undefined) | 5.01 µM [rising, partial curve, poor fit] | 
14 | COc1cc(/C=N/NC(=O)c2cccnc2)cc2c1OCO2 | 11.2 µM [falling, partial curve, poor fit] | 
15 | Nc1nc(SCc2ccc(Br)cc2)[nH]c(=O)c1-c1ccccc1 | 5.01 µM [rising, partial curve] | 
16 | Cc1ccc2nc(-c3ccccc3O)c(Nc3ccc4c(c3)OCCO4)n2c1 | 25.9 µM [rising, single point] | 
17 | C=C(Cl)COc1ccc2c(CC)cc(=O)oc2c1 | 2.51 µM [rising, full curve, poor fit] | 
18 | CC(=O)CSc1nnc2cc(C)c3ccccc3n12 | 11.2 µM [rising, partial curve] | 
19 | COc1ccccc1-c1nc2c3ccccc3nc(=S)n2[nH]1 | 35.5 µM [rising, single point] | 4.47 µM [falling, full curve]
20 | Oc1ccc2cc(Br)ccc2c1CN1CCCC1 | 10 µM [rising, partial curve] | 
21 | COc1ccccc1CNC(=O)COC(=O)c1ccccc1-c1ccccc1 | 23.1 µM [falling, partial curve, poor fit] | 

Quoted at random: 3 entries already listed, in no set order.
Row | Structure (SMILES) | AC50 [1] | AC50 [2]
21 | COc1ccccc1CNC(=O)COC(=O)c1ccccc1-c1ccccc1 | 23.1 µM [falling, partial curve, poor fit] | 
12 | COc1ccccc1N1CCN(CC(=O)c2c(C)n(C)c3ccccc23)CC1 | 6.31 µM [rising, partial curve, poor fit] | 
17 | C=C(Cl)COc1ccc2c(CC)cc(=O)oc2c1 | 2.51 µM [rising, full curve, poor fit] | 

(next part)

Row | Structure (SMILES) | AC50 [1] | AC50 [2]
22 | Cc1c(C(=O)O)cccc1-c1ccc(/C=C2\SC(=O)NC2=O)o1 | 0.794 µM [falling, full curve] | 
23 | O=C(NCc1nc2ccccc2[nH]1)C1=C[C@H](c2ccc(C(F)(F)F)cc2)C[C@H](OCc2ccc(CO)cc2)O1 | 35.5 µM [falling, single point] | 
24 | Cc1[nH][nH]c(=O)c1C(c1ccc(Br)cc1)c1c(C)[nH][nH]c1=O | 35.5 µM [falling, partial curve, poor fit] | 
25 | O=C(NCc1cccs1)Nc1cccs1 | 10 µM [falling, partial curve, poor fit] | 
26 | COc1cc(NC(=O)COn2nnc3ccc(S(C)(=O)=O)cc32)cc(OC)c1 | 2.82 µM [falling, partial curve, poor fit] | 
27 | COC(=O)c1cn(C(=O)c2ccc(C)cc2C)c2ccccc12 | 6.31 µM [falling, single point] | 
28 | Cc1ccc(-c2noc(CCC(=O)NCCCN3CCN(c4cccc(Cl)c4)CC3)n2)cc1 | 6.31 µM [falling, partial curve, poor fit] | 
29 | OCc1cn(-c2ccccc2)nc1-c1cc2ccccc2o1 | 35.5 µM [falling, single point] | 14.1 µM [rising, single point]
30 | COc1ccccc1C(=O)Nc1ccccc1SC(=O)c1ccccc1OC | 35.5 µM [falling, single point] | 3.55 µM [falling, full curve, poor fit]
31 | O=C(Cc1cccs1)NCc1ccco1 | 29.1 µM [rising, single point] | 
32 | N#CC1=C(Nc2ccccc2)SC=C(c2ccc(Cl)c(Cl)c2)N=C1N1CCOCC1 | 15.8 µM [falling, single point] | 
33 | O=C(N/N=C/c1ccc(Cl)cc1)c1sccc1OCc1ccc(F)cc1 | 13 µM [rising, partial curve] | 8.2 µM [falling, partial curve]
34 | COc1ccc(/C=N/NC(=S)Nc2cccc(C(=O)O)c2)cc1 | 6.31 µM [falling, partial curve, poor fit] | 
35 | COc1ccccc1C1C2CCCCC2(O)CCN1CC(=O)Nc1ccccc1 (centres undefined) | 31.6 µM [falling, single point] | 
36 | COc1ccc(OC)c(NC(=O)Cc2nn(C)c(=O)c3ccccc23)c1 | 16.4 µM [falling, partial curve] | 
37 | N/C(=N\OC(=O)c1cccc2ccccc12)c1ccncc1 | 2.24 µM [rising, full curve, poor fit] | 
38 | COCCNC(=S)N/N=C(\C)c1ccccc1F | 35.5 µM [falling, single point] | 10 µM [falling, partial curve]
39 | O=C(C1CCCN(S(=O)(=O)c2ccc(Br)cc2)C1)N1CCN(Cc2ccccc2)CC1 (centres undefined) | 1.78 µM [falling, partial curve, poor fit] | 
40 | O=C(Oc1ccccc1Cl)c1ccccc1P(=O)(O)O | 18.4 µM [rising, partial curve, poor fit] | 
41 | CN1CCN(C(=O)c2ccccc2NC(=O)c2cccc(Cl)c2)CC1 | 1.78 µM [rising, partial curve, poor fit] | 
42 | COC(=O)Nc1ccc(S(=O)(=O)Nc2cccc3ccccc23)cc1 | 10.3 µM [falling, partial curve, poor fit] | 

Row | Structure (SMILES) | AC50 [1] | AC50 [2]
43 | Cn1c(=O)c([N+](=O)[O-])c(NCc2ccccc2)c2ccccc21 | 3.26 µM [falling, partial curve] | 
44 | CC(=O)OCc1nc2ccccc2s1 | 17.8 µM [rising, single point] | 
45 | CNS(=O)(=O)c1ccc(NC(=O)c2nc3nc(C)cc(C(F)F)n3n2)cc1 | 32.6 µM [falling, single point] | 
46 | CCC1CCCCN1C(=S)NC(=O)c1cccs1 (centres undefined) | 4.47 µM [rising, partial curve, poor fit] | 35.5 µM [falling, partial curve, poor fit]
47 | COc1ccccc1NS(=O)(=O)NC(=O)c1cn(C)c2ccccc12 | 28.2 µM [falling, single point] | 
48 | Cc1ccc(/C=N\NC(=O)c2ccc3c(c2)OCO3)o1 | 12.6 µM [falling, partial curve, poor fit] | 
49 | Cc1nc(SCC(=O)Nc2cccc(Cl)c2)n[nH]1 | 0.146 µM [rising, full curve, poor fit] | 
50 | O=C(C/C(=N\NC(=O)c1ccccc1Br)C(F)(F)F)c1cccs1 | 14.6 µM [falling, partial curve] | 
51 | COc1cccc(CN(C)Cc2c(O)ccc3ccccc23)c1 | 7.08 µM [falling, full curve, poor fit] | 
52 | O=C(Nc1ccc(Cl)cc1)OC(CN1CCCCC1)C(F)(F)F (centres undefined) | 5.62 µM [rising, single point] | 
53 | O=S(=O)(Nn1c(O)c(C=C2N=c3ccccc3=N2)sc1=S)c1ccccc1 | 10 µM [falling, partial curve] | 
54 | COc1cc2cc(CCCOC(=O)c3cc(OC)c(OC)c(OC)c3)oc(=O)c2cc1OC | 8.2 µM [rising, partial curve, poor fit] | 
55 | CCOc1cc(C2C(C(C)=O)=C(O)C(=O)N2CCc2c[nH]c3ccccc23)ccc1O (centres undefined) | 5.01 µM [rising, partial curve, poor fit] | 
56 | O=c1/c(=C\c2ccc(F)cc2)sc2n1CCCN=2 | 25.1 µM [falling, single point] | 
57 | CCC1=Nc2cc(C(=O)NCCN3CCCC3)ccc2Sc2ccc(C)cc21 | 3.16 µM [falling, partial curve, poor fit] | 
58 | N/C(=N\OC(=O)c1ccc(Cl)cc1)c1cccnc1 | 0.116 µM [rising, full curve, poor fit] | 
59 | Cc1onc(-c2c(Cl)cccc2Cl)c1NC(=O)NN(C)c1ccc([N+](=O)[O-])cn1 | 35.5 µM [rising, single point] | 
60 | Cc1cccc(-c2cc(C(=O)Nc3cccnc3)c3ccccc3n2)c1 | 22.4 µM [falling, single point] | 
61 | CCC(=O)Nc1cccc(NC(=O)COc2ccc(OC)cc2)c1 | 0.731 µM [falling, full curve] | 
62 | CSc1ncccc1C(=O)OCc1ccccc1 | 3.16 µM [rising, partial curve, poor fit] | 
63 | Cc1ccc(NC(=O)NC(=O)c2cnccc2C(F)(F)F)c(C)c1 | 0.355 µM [rising, full curve, poor fit] | 
